The supplement of paper PMC12823440, “Inhibitors supercharge kinase turnover through native proteolytic circuits” (Nature, 2025)
Where a name gives a salt, the structure may show the parent alone. The list shows a part of the results. Hit calls seldom repeat between salt and free forms of one compound.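 Kinases were expressed as nanoluciferase fusions in K562 cells and luminescence was read every 4 h between 2 and 18 h as percent of control, DMSO set to 100% and a positive control to 0%. A time point counts as decreased when the signal drops significantly (2 sigma). The hit call is the authors' own, does not follow from the count of time points alone, and its rule is not shown.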

The chains behind the UniProt entries cited, without tags or fusion partners. Where a name states a change or a piece, a line headed by the entry shows the natural chain unless it says otherwise.
UniProt Q05397, whole entry, looked up: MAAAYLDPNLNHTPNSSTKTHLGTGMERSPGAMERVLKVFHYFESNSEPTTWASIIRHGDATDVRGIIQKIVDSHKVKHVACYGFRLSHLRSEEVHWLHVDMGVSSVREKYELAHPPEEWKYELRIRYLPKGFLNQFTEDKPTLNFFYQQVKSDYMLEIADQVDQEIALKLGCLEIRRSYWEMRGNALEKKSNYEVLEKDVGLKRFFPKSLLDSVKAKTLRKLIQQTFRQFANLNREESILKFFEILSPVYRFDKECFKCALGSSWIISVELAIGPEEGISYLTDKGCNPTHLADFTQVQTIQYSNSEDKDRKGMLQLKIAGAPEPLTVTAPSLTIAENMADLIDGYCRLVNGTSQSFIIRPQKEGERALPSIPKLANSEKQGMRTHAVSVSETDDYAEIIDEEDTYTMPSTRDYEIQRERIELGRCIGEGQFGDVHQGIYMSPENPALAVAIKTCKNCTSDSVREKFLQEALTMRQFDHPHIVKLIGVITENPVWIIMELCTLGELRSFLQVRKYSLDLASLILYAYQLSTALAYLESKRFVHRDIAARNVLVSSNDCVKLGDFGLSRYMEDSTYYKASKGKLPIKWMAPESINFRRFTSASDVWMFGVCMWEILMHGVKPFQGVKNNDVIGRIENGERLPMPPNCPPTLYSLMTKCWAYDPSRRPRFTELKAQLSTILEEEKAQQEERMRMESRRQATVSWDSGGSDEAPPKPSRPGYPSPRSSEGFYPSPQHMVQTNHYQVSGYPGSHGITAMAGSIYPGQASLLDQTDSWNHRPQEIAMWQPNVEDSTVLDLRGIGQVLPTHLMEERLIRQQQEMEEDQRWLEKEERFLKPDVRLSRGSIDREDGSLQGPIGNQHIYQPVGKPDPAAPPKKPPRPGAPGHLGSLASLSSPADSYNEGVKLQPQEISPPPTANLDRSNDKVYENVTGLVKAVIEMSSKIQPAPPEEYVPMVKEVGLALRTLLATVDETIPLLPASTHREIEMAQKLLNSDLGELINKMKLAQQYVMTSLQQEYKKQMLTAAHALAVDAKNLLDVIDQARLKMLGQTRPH
UniProt P07949, whole entry, looked up: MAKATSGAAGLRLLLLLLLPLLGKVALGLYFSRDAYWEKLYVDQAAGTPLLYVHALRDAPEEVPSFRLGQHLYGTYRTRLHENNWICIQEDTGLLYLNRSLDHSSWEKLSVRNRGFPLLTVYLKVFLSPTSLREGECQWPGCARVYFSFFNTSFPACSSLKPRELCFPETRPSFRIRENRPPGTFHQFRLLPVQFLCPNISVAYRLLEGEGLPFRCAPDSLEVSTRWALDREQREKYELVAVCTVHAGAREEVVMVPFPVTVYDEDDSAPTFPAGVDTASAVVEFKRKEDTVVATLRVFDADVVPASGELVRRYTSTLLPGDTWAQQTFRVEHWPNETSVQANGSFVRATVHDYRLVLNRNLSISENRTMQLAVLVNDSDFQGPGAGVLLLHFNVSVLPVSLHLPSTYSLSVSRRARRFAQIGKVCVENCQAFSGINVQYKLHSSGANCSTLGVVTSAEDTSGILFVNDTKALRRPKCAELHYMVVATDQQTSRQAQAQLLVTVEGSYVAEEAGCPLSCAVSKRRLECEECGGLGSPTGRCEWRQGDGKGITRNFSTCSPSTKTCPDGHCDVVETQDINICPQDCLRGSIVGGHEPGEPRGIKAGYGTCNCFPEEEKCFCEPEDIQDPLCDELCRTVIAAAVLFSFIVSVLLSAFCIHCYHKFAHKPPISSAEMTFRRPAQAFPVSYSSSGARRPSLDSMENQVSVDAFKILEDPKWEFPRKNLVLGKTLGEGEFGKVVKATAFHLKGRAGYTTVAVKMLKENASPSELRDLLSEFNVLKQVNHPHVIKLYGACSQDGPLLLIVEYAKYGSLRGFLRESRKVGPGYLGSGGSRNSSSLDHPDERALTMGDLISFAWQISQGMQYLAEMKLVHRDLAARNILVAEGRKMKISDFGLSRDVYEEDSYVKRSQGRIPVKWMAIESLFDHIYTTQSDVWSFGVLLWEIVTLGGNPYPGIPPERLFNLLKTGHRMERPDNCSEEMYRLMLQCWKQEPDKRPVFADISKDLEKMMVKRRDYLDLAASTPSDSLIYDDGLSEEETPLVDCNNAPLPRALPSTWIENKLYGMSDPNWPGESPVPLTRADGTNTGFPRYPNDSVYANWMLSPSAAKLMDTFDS
UniProt P07949, whole entry M918T, looked up: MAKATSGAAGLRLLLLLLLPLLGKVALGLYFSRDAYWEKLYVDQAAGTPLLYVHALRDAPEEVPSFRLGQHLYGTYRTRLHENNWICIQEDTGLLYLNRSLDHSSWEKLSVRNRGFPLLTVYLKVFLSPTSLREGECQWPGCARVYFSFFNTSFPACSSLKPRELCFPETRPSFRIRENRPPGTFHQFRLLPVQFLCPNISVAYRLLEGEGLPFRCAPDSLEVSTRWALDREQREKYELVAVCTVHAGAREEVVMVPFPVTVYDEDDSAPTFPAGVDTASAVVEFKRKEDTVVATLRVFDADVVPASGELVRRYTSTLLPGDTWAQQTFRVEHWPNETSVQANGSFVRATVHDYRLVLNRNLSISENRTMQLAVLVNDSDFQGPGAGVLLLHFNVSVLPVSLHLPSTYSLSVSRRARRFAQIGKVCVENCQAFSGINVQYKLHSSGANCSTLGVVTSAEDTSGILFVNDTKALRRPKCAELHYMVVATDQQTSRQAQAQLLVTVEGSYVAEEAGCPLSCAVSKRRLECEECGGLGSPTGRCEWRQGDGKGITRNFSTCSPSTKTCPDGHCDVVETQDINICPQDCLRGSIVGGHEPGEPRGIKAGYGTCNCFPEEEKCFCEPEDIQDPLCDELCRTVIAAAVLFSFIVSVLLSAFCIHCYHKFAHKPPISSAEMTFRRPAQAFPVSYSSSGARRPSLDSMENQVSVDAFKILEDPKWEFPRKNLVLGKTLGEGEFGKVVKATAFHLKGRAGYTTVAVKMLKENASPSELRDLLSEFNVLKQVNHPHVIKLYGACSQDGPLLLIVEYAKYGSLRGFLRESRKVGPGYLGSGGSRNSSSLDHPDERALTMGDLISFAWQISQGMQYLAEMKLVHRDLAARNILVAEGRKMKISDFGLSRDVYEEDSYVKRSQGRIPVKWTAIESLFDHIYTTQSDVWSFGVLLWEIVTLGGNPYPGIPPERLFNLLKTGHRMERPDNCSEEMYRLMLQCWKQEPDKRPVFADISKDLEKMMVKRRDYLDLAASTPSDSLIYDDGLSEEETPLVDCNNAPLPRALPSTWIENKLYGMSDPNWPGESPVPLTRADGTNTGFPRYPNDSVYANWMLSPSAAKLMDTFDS
UniProt Q13546: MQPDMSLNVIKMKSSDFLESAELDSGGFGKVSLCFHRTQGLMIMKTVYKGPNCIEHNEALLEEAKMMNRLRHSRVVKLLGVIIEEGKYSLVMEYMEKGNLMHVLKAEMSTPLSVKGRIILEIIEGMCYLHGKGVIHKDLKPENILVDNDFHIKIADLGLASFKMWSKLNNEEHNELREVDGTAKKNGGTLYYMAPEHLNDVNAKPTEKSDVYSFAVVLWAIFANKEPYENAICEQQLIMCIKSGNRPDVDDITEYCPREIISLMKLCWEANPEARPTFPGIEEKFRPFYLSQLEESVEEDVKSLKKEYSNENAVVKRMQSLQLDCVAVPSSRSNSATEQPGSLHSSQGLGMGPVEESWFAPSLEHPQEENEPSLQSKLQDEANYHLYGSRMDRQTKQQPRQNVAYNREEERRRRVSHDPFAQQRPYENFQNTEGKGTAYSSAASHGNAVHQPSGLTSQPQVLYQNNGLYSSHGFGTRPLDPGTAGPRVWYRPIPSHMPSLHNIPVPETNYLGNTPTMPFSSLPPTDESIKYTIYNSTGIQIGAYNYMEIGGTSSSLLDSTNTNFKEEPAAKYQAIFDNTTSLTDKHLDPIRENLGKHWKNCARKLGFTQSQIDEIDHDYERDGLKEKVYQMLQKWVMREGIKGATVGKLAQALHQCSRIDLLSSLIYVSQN
UniProt Q9Y6E0: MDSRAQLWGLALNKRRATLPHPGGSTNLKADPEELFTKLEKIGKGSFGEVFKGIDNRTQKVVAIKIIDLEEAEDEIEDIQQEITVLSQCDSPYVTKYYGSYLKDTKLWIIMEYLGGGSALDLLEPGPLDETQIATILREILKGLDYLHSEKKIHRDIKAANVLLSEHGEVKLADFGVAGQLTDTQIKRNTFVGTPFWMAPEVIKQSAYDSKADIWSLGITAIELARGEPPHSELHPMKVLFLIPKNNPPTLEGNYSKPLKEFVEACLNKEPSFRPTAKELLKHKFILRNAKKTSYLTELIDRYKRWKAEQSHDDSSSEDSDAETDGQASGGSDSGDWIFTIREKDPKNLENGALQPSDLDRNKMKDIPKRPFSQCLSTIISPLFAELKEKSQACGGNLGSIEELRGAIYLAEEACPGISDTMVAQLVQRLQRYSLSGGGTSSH
UniProt P29597: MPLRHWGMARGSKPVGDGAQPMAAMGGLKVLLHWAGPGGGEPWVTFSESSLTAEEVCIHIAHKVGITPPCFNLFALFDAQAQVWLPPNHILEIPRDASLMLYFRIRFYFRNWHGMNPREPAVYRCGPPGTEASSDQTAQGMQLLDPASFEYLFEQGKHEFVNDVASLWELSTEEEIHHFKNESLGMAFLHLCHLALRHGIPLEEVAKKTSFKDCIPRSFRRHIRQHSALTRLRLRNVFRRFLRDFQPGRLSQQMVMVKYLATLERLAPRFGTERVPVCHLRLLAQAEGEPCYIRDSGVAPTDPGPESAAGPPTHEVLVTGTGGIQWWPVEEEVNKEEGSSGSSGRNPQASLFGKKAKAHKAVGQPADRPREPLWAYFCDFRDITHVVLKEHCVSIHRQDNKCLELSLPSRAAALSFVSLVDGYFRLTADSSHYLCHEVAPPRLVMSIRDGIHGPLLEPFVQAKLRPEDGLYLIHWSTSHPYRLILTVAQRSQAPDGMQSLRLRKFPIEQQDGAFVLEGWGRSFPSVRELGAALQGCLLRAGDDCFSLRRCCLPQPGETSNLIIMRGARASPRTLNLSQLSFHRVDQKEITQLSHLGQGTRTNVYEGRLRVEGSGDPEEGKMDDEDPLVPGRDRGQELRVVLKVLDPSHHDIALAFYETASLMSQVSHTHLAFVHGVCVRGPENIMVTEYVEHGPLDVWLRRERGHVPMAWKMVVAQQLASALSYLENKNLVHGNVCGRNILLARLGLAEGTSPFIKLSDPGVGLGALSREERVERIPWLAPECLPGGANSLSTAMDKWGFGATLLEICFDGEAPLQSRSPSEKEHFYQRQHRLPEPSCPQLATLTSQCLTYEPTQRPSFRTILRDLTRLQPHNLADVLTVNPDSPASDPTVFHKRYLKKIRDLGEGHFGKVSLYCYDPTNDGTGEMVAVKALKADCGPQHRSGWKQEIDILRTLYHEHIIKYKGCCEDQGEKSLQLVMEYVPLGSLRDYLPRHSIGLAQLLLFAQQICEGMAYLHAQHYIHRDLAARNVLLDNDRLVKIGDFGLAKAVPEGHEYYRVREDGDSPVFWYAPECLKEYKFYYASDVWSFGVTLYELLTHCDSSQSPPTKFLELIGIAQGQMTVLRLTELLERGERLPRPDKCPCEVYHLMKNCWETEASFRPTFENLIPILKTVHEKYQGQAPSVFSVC

Legend:
Test in all cases: number of time points (of 5) at which kinase-Nluc abundance scored as decreased, DMSO-normalised (count); higher = more persistent destabilization
Settings in all cases: K562; 2-18 h
PRKCA = PRKCA (UniProt P17252)
PTK2 = PTK2 (UniProt Q05397)
PTK2B = PTK2B (UniProt Q14289)
RAF1 = RAF1 (UniProt P04049)
[1] = target: RAF1_S257L (clone: RAF1_mut) (UniProt P04049)
RET = RET (UniProt P07949)
[2] = target: RET_M918T (clone: RET_mut) (UniProt P07949)
RIOK1 = RIOK1 (UniProt Q9BRS2)
RIPK1 = RIPK1 (UniProt Q13546)
RIPK2 = RIPK2 (UniProt O43353)
ROR2 = ROR2 (UniProt Q01974)
RPS6KA1 = RPS6KA1 (UniProt Q15418)
SPHK1 = SPHK1 (UniProt Q9NYA1)
SRC = SRC (UniProt P12931)
STK24 = STK24 (UniProt Q9Y6E0)
STK38 = STK38 (UniProt Q15208)
SYK = SYK (UniProt P43405)
TEC = TEC (UniProt P42680)
TYK2 = TYK2 (UniProt P29597)
ULK3 = ULK3 (UniProt Q6PHR2)

Compound | number of time points (PRKCA) | number of time points (PTK2) | number of time points (PTK2B) | number of time points (RAF1) | number of time points [1] | number of time points (RET) | number of time points [2] | number of time points (RIOK1) | number of time points (RIPK1) | number of time points (RIPK2) | number of time points (ROR2) | number of time points (RPS6KA1) | number of time points (SPHK1) | number of time points (SRC) | number of time points (STK24) | number of time points (STK38) | number of time points (SYK) | number of time points (TEC) | number of time points (TYK2) | number of time points (ULK3)
CN(C)Cc1cccc(N=C(c2ccccc2)c2c(O)[nH]c3cc(C(N)=O)ccc23)c1 (10 µM) | 0 | 0 | 0 | 0 | 0 | 0 | 0 | 0 | 0 | 0 | 0 | 0 | 0 | 0 | 0 | 0 | 0 | 0 | 0 | 0
CC(C)(C)c1cc(C(c2cc3c(cc2O)OCO3)N2CCOCC2)cc(C(C)(C)C)c1O (stereo not given) (2.5 µM) | 0 | 0 | 0 | 0 | 0 | 0 | 0 | 0 | 0 | 0 | 0 | 0 | 0 | 0 | 0 | 0 | 0 | 0 | 0 | 0
CN1CCN(CCCNc2ncc(Cl)c(-c3cc4c(C(=O)NC5CC5)cccc4s3)n2)CC1 (10 µM) | 0 | 0 | 0 | 0 | 0 | 0 | 0 | 0 | 0 | 0 | 0 | 0 | 0 | 0 | 0 | 0 | 0 | 0 | 0 | 0
O=C1NCCCc2c1oc1ccc(O)cc21 (10 µM) | 0 | 0 | 0 | 0 | 0 | 0 | 0 | 0 | 0 | 0 | 0 | 0 | 0 | 0 | 0 | 0 | 0 | 0 | 0 | 0
CC(C)c1cnn2c(NCc3ccccc3-n3cccn3)nc(OC3CCCNC3)nc12 (stereo not given) (2.5 µM) | 0 | 2 | 0 | 0 | 1 | 0 | 0 | 0 | 4 | 0 | 0 | 0 | 0 | 0 | 0 | 0 | 0 | 0 | 0 | 0
O=C(Nc1ccc(Cl)c(Cl)c1)Nc1ccc2nnsc2c1 (10 µM) | 0 | 0 | 0 | 0 | 0 | 0 | 0 | 0 | 0 | 0 | 0 | 0 | 0 | 0 | 0 | 0 | 0 | 0 | 0 | 0
COc1ccc(CNc2nc(N(CCO)CCO)nc3c2ncn3C(C)C)cc1 (2.5 µM) | 0 | 0 | 0 | 0 | 0 | 0 | 0 | 0 | 0 | 0 | 0 | 0 | 0 | 0 | 0 | 0 | 0 | 0 | 0 | 0
Cc1ccc(-c2ncn(-c3ccc(Nc4nccc(-c5cccc(N6CCOCC6)c5)n4)cc3)n2)cn1 (10 µM) | 0 | 0 | 0 | 0 | 0 | 0 | 0 | 0 | 0 | 0 | 0 | 0 | 0 | 0 | 0 | 0 | 0 | 0 | 0 | 0
CC(C)n1cnc2c(Nc3cccc(Cl)c3)nc(NCCO)nc21 (10 µM) | 0 | 0 | 0 | 0 | 0 | 0 | 0 | 0 | 0 | 0 | 0 | 0 | 0 | 0 | 0 | 0 | 0 | 0 | 0 | 0
Fc1c(Br)cccc1Nc1ncnc2cc3c(cc12)OCCO3 (2.5 µM) | 0 | 1 | 0 | 2 | 0 | 0 | 0 | 1 | 0 | 0 | 0 | 0 | 0 | 0 | 0 | 0 | 0 | 0 | 2 | 0
COc1ccc2c(=O)c(-c3ccccc3)coc2c1 [7-Methoxyisoflavone] (10 µM) | 0 | 0 | 0 | 0 | 0 | 0 | 4 | 0 | 0 | 0 | 0 | 0 | 0 | 0 | 0 | 0 | 0 | 0 | 0 | 0
O=C(O)CCc1ccc(NCc2cccc(Oc3ccccc3)c2)cc1 (10 µM) | 0 | 0 | 0 | 0 | 0 | 0 | 0 | 0 | 0 | 0 | 0 | 0 | 0 | 0 | 0 | 0 | 0 | 0 | 0 | 0
CC1(COc2ccc3c(c2)ncn3-c2ccc3cccc(N4CCC(N)CC4)c3n2)COC1 [Crenolanib] (2.5 µM) | 0 | 0 | 0 | 0 | 3 | 0 | 0 | 1 | 0 | 0 | 0 | 0 | 0 | 0 | 0 | 0 | 0 | 0 | 0 | 4
CC[C@H](C)[C@H](NC(=O)[C@H](CCC(=O)O)NC(=O)[C@H](CCCN=C(N)N)NC(=O)[C@H](CCCN=C(N)N)NC(=O)[C@@H](N)CCCCN)C(=O)N[C@@H](CC(C)C)C(=O)N[C@@H](CO)C(=O)N[C@@H](CCCN=C(N)N)C(=O)N[C@@H](CCCN=C(N)N)C(=O)N1CCC[C@H]1C(=O)N[C@@H](CO)C(=O)N[C@@H](Cc1ccc(O)cc1)C(=O)N[C@@H](CCCN=C(N)N)C(=O)O [CREBtide] (10 µM) | 0 | 0 | 0 | 0 | 0 | 0 | 0 | 0 | 0 | 0 | 0 | 0 | 0 | 0 | 0 | 0 | 0 | 0 | 0 | 0
O=C(Nc1cccc(-c2nncn2C2CC2)c1)c1cc(-n2cnc(C3CC3)c2)ccn1 (10 µM) | 0 | 0 | 0 | 0 | 0 | 0 | 0 | 0 | 0 | 0 | 0 | 0 | 0 | 0 | 0 | 0 | 0 | 0 | 0 | 0
COc1ccccc1/C=C1\C(=O)Nc2ccccc21 (10 µM) | 0 | 0 | 0 | 0 | 0 | 0 | 0 | 0 | 0 | 0 | 0 | 0 | 0 | 0 | 0 | 0 | 0 | 0 | 0 | 0
O=S(=O)(c1cccc2cnccc12)N1CCNCC1 (10 µM) | 0 | 0 | 0 | 0 | 0 | 0 | 0 | 0 | 0 | 0 | 0 | 0 | 0 | 0 | 0 | 0 | 0 | 0 | 0 | 0
CCOc1c([C@H](C)n2nc(C)c3c(N)ncnc32)cc(Cl)c(F)c1[C@@H]1CNC(=O)C1 [Parsaclisib (hydrochloride)] (10 µM) | 0 | 0 | 0 | 0 | 0 | 0 | 0 | 0 | 0 | 0 | 0 | 0 | 0 | 0 | 0 | 0 | 0 | 0 | 0 | 0
CC(=O)Nc1nc(C)c(-c2nc(N3CCCC(O)C3)no2)s1 (stereo not given) (10 µM) | 0 | 0 | 0 | 0 | 0 | 0 | 0 | 0 | 0 | 0 | 0 | 0 | 0 | 0 | 0 | 0 | 0 | 0 | 0 | 0
C[C@@H]1O[C@@H](OC[C@H]2O[C@@H](Oc3cc(O)c4c(c3)O[C@H](c3ccc(O)cc3)CC4=O)[C@H](O)[C@@H](O)[C@@H]2O)[C@H](O)[C@H](O)[C@H]1O [Narirutin] (10 µM) | 0 | 0 | 0 | 0 | 0 | 0 | 0 | 0 | 0 | 0 | 0 | 0 | 0 | 0 | 0 | 0 | 0 | 0 | 0 | 0
NCCCCCCNS(=O)(=O)c1cccc2c(Cl)cccc12 [W-7 (hydrochloride)] (10 µM) | 0 | 0 | 0 | 0 | 0 | 0 | 0 | 0 | 0 | 0 | 0 | 0 | 0 | 0 | 0 | 0 | 0 | 0 | 0 | 0
COc1ncc(Nc2ncc([C@@H](C)N3CCN(S(C)(=O)=O)CC3)cc2-c2nc(C)nc(N)n2)cc1F (10 µM) | 0 | 0 | 0 | 0 | 0 | 0 | 0 | 0 | 0 | 0 | 0 | 0 | 0 | 0 | 0 | 0 | 0 | 0 | 0 | 0
Nc1n[nH]c2cc(-c3ccc(=O)n(Cc4cccc(Cl)c4)c3)ccc12 (10 µM) | 0 | 0 | 0 | 0 | 0 | 0 | 0 | 0 | 0 | 0 | 0 | 0 | 0 | 0 | 0 | 0 | 0 | 0 | 0 | 0
Cc1cc(Nc2cc(CN3CCOCC3)c3nc(C)c(Cc4ccc(Cl)cc4F)n3n2)n[nH]1 [Gandotinib] (2.5 µM) | 0 | 0 | 0 | 0 | 0 | 0 | 0 | 0 | 0 | 0 | 0 | 0 | 0 | 0 | 0 | 0 | 0 | 0 | 0 | 0

Some of the entries above in a different format.
Compound	number of time points (PRKCA)	number of time points (PTK2)	number of time points (PTK2B)	number of time points (RAF1)	number of time points [1]	number of time points (RET)	number of time points [2]	number of time points (RIOK1)	number of time points (RIPK1)	number of time points (RIPK2)	number of time points (ROR2)	number of time points (RPS6KA1)	number of time points (SPHK1)	number of time points (SRC)	number of time points (STK24)	number of time points (STK38)	number of time points (SYK)	number of time points (TEC)	number of time points (TYK2)	number of time points (ULK3)
CC(C)n1cnc2c(Nc3cccc(Cl)c3)nc(NCCO)nc21 (10 µM)	0	0	0	0	0	0	0	0	0	0	0	0	0	0	0	0	0	0	0	0
CCOc1c([C@H](C)n2nc(C)c3c(N)ncnc32)cc(Cl)c(F)c1[C@@H]1CNC(=O)C1 [Parsaclisib (hydrochloride)] (10 µM)	0	0	0	0	0	0	0	0	0	0	0	0	0	0	0	0	0	0	0	0
